# Reference: the supplement of paper PMC8728848
# Some of the results follow.
# B1: Epa2 (Candida glabrata) (protein)
# chain: MGSSHHHHHHSSGLVPRGSHMASSKDPTSFPMGCSPQVLKTQPGLAVKLYSYGHPVPGCAYNTYQYPDFPRSGYKKERKLADITGVNGRIDIDLKPNDPCRVLSGNLPSNYNYQNTLTYTNFTMILYGYFQPKVTGYHTFNLEADDLLFMNLGAGNAFDCCRAESTLDNFGNYQSYSIWGTDKATADLTVFLVSGIYYPIRLFYVNRDNNAVLDFSFSTEFNKEIIHDFTSYFFSASDEEQCPGNI
# Experiments:
# Assay in all cases: glycan array binding signal (z-score within array); higher = stronger binding
# Conditions in all cases: glycan notation: IUPAC condensed, linker removed
# [1] = target: Gal(a1-3)Gal(b1-4)GlcNAc
# In short: (§1)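 Glycan array data came from 3228 arrays in the Consortium for Functional Glycomics database, and only arrays with an available protein sequence were kept. Glycan names were put into IUPAC-condensed notation, and columns mapping to the same glycan were averaged. The binding signal is a within-array Z-score, averaged across arrays of one protein sequence run at different concentrations or buffers and across linkers. A negative Z-score can be read as non-binding.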
# [2] = target: Gal(a1-3)Gal(b1-4)GlcNAc(b1-2)Man
# In short: as §1
# [3] = target: Gal(a1-3)Gal(b1-4)GlcNAc(b1-2)Man(a1-3)[Gal(a1-3)Gal(b1-4)GlcNAc(b1-2)Man(a1-6)]Man(b1-4)GlcNAc(b1-4)GlcNAc
# In short: as §1
# [4] = target: Gal(a1-3)Gal(b1-4)GlcNAc(b1-3)GalNAc
# In short: as §1
# [5] = target: Gal(a1-3)Gal(b1-4)GlcNAc(b1-6)GalNAc
# In short: as §1
# [6] = target: Gal(a1-3)Gal(b1-4)[Fuc(a1-3)]GlcNAc
# In short: as §1
# [7] = target: Gal(a1-3)Gal(b1-4)[Fuc(a1-3)]GlcNAc(b1-2)Man(a1-3)[Gal(a1-3)Gal(b1-4)[Fuc(a1-3)]GlcNAc(b1-2)Man(a1-6)]Man(b1-4)GlcNAc(b1-4)GlcNAc
# In short: as §1
# [8] = target: Gal(a1-3)GalNAc
# In short: as §1
# [9] = target: Gal(a1-3)[Gal(a1-4)]Gal(b1-4)GlcNAc
# In short: as §1
# [10] = target: Gal(a1-4)Gal(b1-3)GlcNAc(b1-2)Man(a1-3)[Gal(a1-4)Gal(b1-3)GlcNAc(b1-2)Man(a1-6)]Man(b1-4)GlcNAc(b1-4)GlcNAc
# In short: as §1
# [11] = target: Gal(a1-4)Gal(b1-4)Glc
# In short: as §1
# [12] = target: Gal(a1-4)Gal(b1-4)GlcNAc
# In short: as §1
# [13] = target: Gal(a1-4)Gal(b1-4)GlcNAc(b1-2)Man(a1-3)[Gal(a1-4)Gal(b1-4)GlcNAc(b1-2)Man(a1-6)]Man(b1-4)GlcNAc(b1-4)GlcNAc
# In short: as §1
# [14] = target: Gal(a1-4)Gal(b1-4)GlcNAc(b1-3)Gal(b1-4)Glc
# In short: as §1
# [15] = target: Gal(a1-4)GlcNAc
# In short: as §1
# [16] = target: Gal(a1-6)Glc
# In short: as §1
# [17] = target: Gal(b1-2)Gal
# In short: as §1
# [18] = target: Gal(b1-3)Gal
# In short: as §1
# [19] = target: Gal(b1-3)Gal(b1-4)GlcNAc
# In short: as §1
# [20] = target: Gal(b1-3)GalNAc
# In short: as §1
# [21] = target: Gal(b1-3)GalNAc(a1-3)[Fuc(a1-2)]Gal(b1-4)Glc
# In short: as §1
# [22] = target: Gal(b1-3)GalNAc(a1-3)[Fuc(a1-2)]Gal(b1-4)GlcNAc
# In short: as §1
# [23] = target: Gal(b1-3)GalNAc(b1-3)Gal
# In short: as §1
# [24] = target: Gal(b1-3)GalNAc(b1-3)Gal(a1-4)Gal(b1-4)Glc
# In short: as §1
# [25] = target: Gal(b1-3)GalNAc(b1-4)Gal(b1-4)Glc
# In short: as §1
# [26] = target: Gal(b1-3)GalNAc(b1-4)[Neu5Ac(a2-3)]Gal(b1-4)Glc
# In short: as §1
# [27] = target: Gal(b1-3)GlcNAc
# In short: as §1
# [28] = target: Gal(b1-3)GlcNAc(a1-3)Gal(b1-4)GlcNAc
# In short: as §1
# [29] = target: Gal(b1-3)GlcNAc(a1-6)Gal(b1-4)GlcNAc
# In short: as §1
# [30] = target: Gal(b1-3)GlcNAc(b1-2)Man
# In short: as §1
# [31] = target: Gal(b1-3)GlcNAc(b1-2)Man(a1-3)[Gal(b1-3)GlcNAc(b1-2)Man(a1-6)]Man(b1-4)GlcNAc(b1-4)GlcNAc
# In short: as §1
# [32] = target: Gal(b1-3)GlcNAc(b1-2)Man(a1-3)[Gal(b1-3)GlcNAc(b1-2)Man(a1-6)]Man(b1-4)GlcNAc(b1-4)[Fuc(a1-6)]GlcNAc
# In short: as §1
# [33] = target: Gal(b1-3)GlcNAc(b1-2)Man(a1-3)[GlcNAc(b1-4)][Gal(b1-3)GlcNAc(b1-2)Man(a1-6)]Man(b1-4)GlcNAc(b1-4)GlcNAc
# In short: as §1
# [34] = target: Gal(b1-3)GlcNAc(b1-2)[Gal(b1-3)GlcNAc(b1-6)]Man(a1-6)[Gal(b1-3)GlcNAc(b1-2)Man(a1-3)]Man(b1-4)GlcNAc(b1-4)GlcNAc
# In short: as §1
# [35] = target: Gal(b1-3)GlcNAc(b1-3)Gal(b1-3)GlcNAc
# In short: as §1
# [36] = target: Gal(b1-3)GlcNAc(b1-3)Gal(b1-4)Glc
# In short: as §1
# [37] = target: Gal(b1-3)GlcNAc(b1-3)Gal(b1-4)GlcNAc
# In short: as §1
binder,measurement,setting,value
B1,glycan array binding signal (z-score),[1],0.099
same,glycan array binding signal (z-score),[2],-1.15
same,glycan array binding signal (z-score),[3],0.003
same,glycan array binding signal (z-score),[4],0.279
same,glycan array binding signal (z-score),[5],-0.743
same,glycan array binding signal (z-score),[6],-0.595
same,glycan array binding signal (z-score),[7],0.447
same,glycan array binding signal (z-score),[8],-0.37
same,glycan array binding signal (z-score),[9],-0.11
same,glycan array binding signal (z-score),[10],0.032
same,glycan array binding signal (z-score),[11],1
same,glycan array binding signal (z-score),[12],0.406
same,glycan array binding signal (z-score),[13],0.034
same,glycan array binding signal (z-score),[14],0.184
same,glycan array binding signal (z-score),[15],2.5
same,glycan array binding signal (z-score),[16],0.288
same,glycan array binding signal (z-score),[17],-1.01
same,glycan array binding signal (z-score),[18],-0.951
same,glycan array binding signal (z-score),[19],-0.446
same,glycan array binding signal (z-score),[20],-0.051
same,glycan array binding signal (z-score),[21],0.291
same,glycan array binding signal (z-score),[22],0.314
same,glycan array binding signal (z-score),[23],0.505
same,glycan array binding signal (z-score),[24],-0.078
same,glycan array binding signal (z-score),[25],1.09
same,glycan array binding signal (z-score),[26],0.497
same,glycan array binding signal (z-score),[27],-0.783
same,glycan array binding signal (z-score),[28],-0.874
same,glycan array binding signal (z-score),[29],0.297
same,glycan array binding signal (z-score),[30],-0.068
same,glycan array binding signal (z-score),[31],0.254
same,glycan array binding signal (z-score),[32],-0.373
same,glycan array binding signal (z-score),[33],-0.141
same,glycan array binding signal (z-score),[34],-0.157
same,glycan array binding signal (z-score),[35],-0.374
same,glycan array binding signal (z-score),[36],-0.223
same,glycan array binding signal (z-score),[37],-1.08

# No new results follow: entries from further up.
binder,measurement,setting,value
B1,glycan array binding signal (z-score),[24],-0.078
same,glycan array binding signal (z-score),[25],1.09
same,glycan array binding signal (z-score),[26],0.497
